According to article PMC3582507:
No constants are given. Whether binding was seen depends on the method and setting. Binding seen in cells or lysates may run through a third protein. Some entries that bind do so weakly or less than the wild type.

Protein sequences, listed by entry. Tags and fused reporters are not part of them.
UniProt P19073: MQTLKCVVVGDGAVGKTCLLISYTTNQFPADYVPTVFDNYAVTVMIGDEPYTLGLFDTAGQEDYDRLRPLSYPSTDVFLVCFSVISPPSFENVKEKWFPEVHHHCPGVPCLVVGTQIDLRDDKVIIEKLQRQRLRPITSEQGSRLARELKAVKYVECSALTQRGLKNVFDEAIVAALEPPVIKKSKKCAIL

Target: T1, Gps1-TAP (S. cerevisiae) (UniProt Q99299)
T1 sequence: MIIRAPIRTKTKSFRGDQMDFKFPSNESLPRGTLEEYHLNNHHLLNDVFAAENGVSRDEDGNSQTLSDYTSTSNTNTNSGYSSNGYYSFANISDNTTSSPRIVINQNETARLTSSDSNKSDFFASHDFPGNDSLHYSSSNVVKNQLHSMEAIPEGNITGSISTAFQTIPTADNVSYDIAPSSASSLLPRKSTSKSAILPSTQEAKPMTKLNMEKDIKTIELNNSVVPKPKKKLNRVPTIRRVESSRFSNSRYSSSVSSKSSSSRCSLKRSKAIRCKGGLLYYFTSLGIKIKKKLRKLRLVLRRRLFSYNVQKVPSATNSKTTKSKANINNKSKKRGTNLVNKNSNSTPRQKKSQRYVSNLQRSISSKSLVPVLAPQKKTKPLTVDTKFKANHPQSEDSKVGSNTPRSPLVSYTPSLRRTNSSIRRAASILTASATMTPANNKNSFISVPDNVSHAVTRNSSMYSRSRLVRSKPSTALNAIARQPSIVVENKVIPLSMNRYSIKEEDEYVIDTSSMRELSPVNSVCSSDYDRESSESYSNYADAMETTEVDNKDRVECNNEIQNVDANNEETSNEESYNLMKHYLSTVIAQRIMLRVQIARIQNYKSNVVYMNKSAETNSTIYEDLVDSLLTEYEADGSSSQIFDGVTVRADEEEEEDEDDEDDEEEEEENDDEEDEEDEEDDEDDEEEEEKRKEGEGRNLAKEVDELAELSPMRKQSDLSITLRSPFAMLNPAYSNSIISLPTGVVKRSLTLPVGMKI
Assay: co-IP; Gps1-TAP immunoprecipitated from yeast total extract (100-ml culture) with Dynabeads coupled to rabbit IgG; 50 mM Tris-HCl pH 7.5, 150 mM NaCl, 10% glycerol, 0.5% NP40; immunoblotting

## Cdc42 (functional tagged protein of the co-immunoprecipitation) (from UniProt P19073 1-191)
  binding: binds
